# In patent US8148095B2, “Methods for predicting psychotropic drugs which elicit weight gain” (The Johns Hopkins University, priority 2006, dated 2012):
# At least one compound was matched to its structure with a doubt left.
# Experiments:
# receptors for leptin = biological target: T1, receptors for leptin (Homo sapiens, UniProt P48357); assay: Ligand binding to leptin receptor; conditions: 10, 100 nM; data not shown
# T1 sequence (P48357 22-1165): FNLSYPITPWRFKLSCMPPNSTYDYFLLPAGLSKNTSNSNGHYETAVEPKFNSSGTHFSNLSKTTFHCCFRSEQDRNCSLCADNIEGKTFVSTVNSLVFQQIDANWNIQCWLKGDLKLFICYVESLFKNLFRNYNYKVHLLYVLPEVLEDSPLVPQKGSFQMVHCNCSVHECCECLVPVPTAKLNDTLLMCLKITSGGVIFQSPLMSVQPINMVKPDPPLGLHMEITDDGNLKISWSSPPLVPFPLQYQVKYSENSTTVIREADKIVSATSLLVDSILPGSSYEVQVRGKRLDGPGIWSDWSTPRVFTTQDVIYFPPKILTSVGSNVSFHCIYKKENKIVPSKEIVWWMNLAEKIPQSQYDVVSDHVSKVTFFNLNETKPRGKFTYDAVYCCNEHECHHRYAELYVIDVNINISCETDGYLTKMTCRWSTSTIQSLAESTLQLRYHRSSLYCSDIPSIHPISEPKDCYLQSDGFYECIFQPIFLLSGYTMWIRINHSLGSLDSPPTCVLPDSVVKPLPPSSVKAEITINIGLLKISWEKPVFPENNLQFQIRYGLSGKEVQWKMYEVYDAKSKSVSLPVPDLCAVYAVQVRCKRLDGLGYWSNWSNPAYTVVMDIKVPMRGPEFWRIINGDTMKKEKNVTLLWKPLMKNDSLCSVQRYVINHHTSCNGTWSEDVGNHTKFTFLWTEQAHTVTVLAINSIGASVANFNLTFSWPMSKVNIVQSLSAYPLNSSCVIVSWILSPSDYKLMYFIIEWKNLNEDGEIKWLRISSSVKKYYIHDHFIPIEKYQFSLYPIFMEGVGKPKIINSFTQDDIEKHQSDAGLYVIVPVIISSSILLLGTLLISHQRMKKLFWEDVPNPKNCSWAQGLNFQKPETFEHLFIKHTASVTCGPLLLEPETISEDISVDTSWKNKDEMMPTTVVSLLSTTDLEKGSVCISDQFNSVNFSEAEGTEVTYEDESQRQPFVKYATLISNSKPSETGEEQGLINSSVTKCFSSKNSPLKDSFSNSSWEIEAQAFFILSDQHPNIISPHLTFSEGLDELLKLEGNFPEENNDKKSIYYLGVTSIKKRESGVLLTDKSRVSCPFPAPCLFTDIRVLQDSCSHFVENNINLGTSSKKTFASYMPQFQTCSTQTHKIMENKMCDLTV
# hypothalamic AMPK = assay: Phospho-AMPK in hypothalamic slices by Western blotting; assay type: cell-based, mice
# From the text: FIGS. 1A-1F. AAPDs activate AMPK in hypothalamic slices.
# The slices were dispersed in artificial cerebrospinal fluid buffer.
# [1] = system: receptors for neuropeptide Y; assay: Ligand binding to neuropeptide Y receptor; conditions: 10, 100 nM; data not shown
# receptors for alpha-MSH = assay: Ligand binding to alpha-MSH receptor; conditions: 10, 100 nM; data not shown
compound,measurement,setting,value
Cc1cc2c(s1)Nc1ccccc1N=C2N1CCN(C)CC1 [Olanzapine],influence on ligand binding to receptors for leptin,receptors for leptin,fail to influence
same,levels of phospho-AMPK,"hypothalamic AMPK; 500 nM drug, 30 min",markedly enhance
same,time at which increased AMPK phosphorylation is first observed,"hypothalamic AMPK; 500 mM (so in the source) drug, various times",5 min
same,influence on ligand binding to receptors for neuropeptide Y,[1],fail to influence
same,influence on ligand binding to receptors for alpha-MSH,receptors for alpha-MSH,fail to influence
